Data from the supplement of paper PMC10077471.
In all, about 1,900 compounds were measured (“excess over highest single agent (ExcessHSA) synergy score, 6x6 matrix”: median about -83, lowest 2% from about -370 on). The list shows a part of the results.

test system: NCI-H446; experiment: excess over highest single agent (ExcessHSA) synergy score, 6x6 matrix; higher = less synergy (more negative = stronger synergy); conditions: 72 h; CellTiter-Glo viability

| Compound | excess over highest single agent |
| --- | --- |
| CC=C1C2C=C(C)CC1(N)c1ccc(=O)[nH]c1C2 (stereo not given) + Cc1sc2c(c1C)C(c1ccc(Cl)cc1)=N[C@@H](CC(=O)OC(C)(C)C)c1nnc(C)n1-2 [NCGC00250412-19] | -16.9 |
| C=C(C)[C@@H]1CC[C@]2(C(=O)O)CC[C@]3(C)[C@H](CC[C@@H]4[C@@]5(C)CC[C@H](O)C(C)(C)[C@@H]5CC[C@]43C)[C@@H]12 + Cc1sc2c(c1C)C(c1ccc(Cl)cc1)=N[C@@H](CC(=O)OC(C)(C)C)c1nnc(C)n1-2 [NCGC00250412-19] | 56 |
| CCCCCN(C)CCC(O)(P(=O)(O)O)P(=O)(O)O + Cc1sc2c(c1C)C(c1ccc(Cl)cc1)=N[C@@H](CC(=O)OC(C)(C)C)c1nnc(C)n1-2 [NCGC00250412-19] | -38.2 |
| O=C(O)C1=C[C@@H](O)[C@@H](O)[C@H](O)C1 + Cc1sc2c(c1C)C(c1ccc(Cl)cc1)=N[C@@H](CC(=O)OC(C)(C)C)c1nnc(C)n1-2 [NCGC00250412-19] | 100 |
| CC(C)OC(=O)C(C(=O)OC(C)C)=C1SC=CS1 + Cc1sc2c(c1C)C(c1ccc(Cl)cc1)=N[C@@H](CC(=O)OC(C)(C)C)c1nnc(C)n1-2 [NCGC00250412-19] | -54.8 |
| Cc1c(C)n(Cc2ccc(-c3ccccc3C(=O)O)cc2)c2ccc(C(=O)N[C@@H](C)c3ccc([N+](=O)[O-])cc3)cc12 + Cc1sc2c(c1C)C(c1ccc(Cl)cc1)=N[C@@H](CC(=O)OC(C)(C)C)c1nnc(C)n1-2 [NCGC00250412-19] | 224 |
| CC[C@]12C=CCN3CC[C@@]4(c5cc([C@@]6(C(=O)OC)C[C@@H]7C[C@@H](C(C)(F)F)CN(Cc8c6[nH]c6ccccc86)C7)c(OC)cc5N(C)[C@H]4[C@@](O)(C(=O)OC)[C@@H]1OC(C)=O)[C@@H]32 + Cc1sc2c(c1C)C(c1ccc(Cl)cc1)=N[C@@H](CC(=O)OC(C)(C)C)c1nnc(C)n1-2 [NCGC00250412-19] | -187 |
| CNC(=O)c1c(-c2ccc(F)cc2)oc2cc(N(CCO)S(C)(=O)=O)c(C3CC3)cc12 + Cc1sc2c(c1C)C(c1ccc(Cl)cc1)=N[C@@H](CC(=O)OC(C)(C)C)c1nnc(C)n1-2 [NCGC00250412-19] | -113 |
| CCNC(=O)[C@H]1O[C@@H](n2cnc3c(N)nc(NCCc4ccc(CCC(=O)O)cc4)nc32)[C@H](O)[C@@H]1O + Cc1sc2c(c1C)C(c1ccc(Cl)cc1)=N[C@@H](CC(=O)OC(C)(C)C)c1nnc(C)n1-2 [NCGC00250412-19] | -52.9 |
| CCN(CC)CCCC(C)Nc1ccnc2cc(Cl)ccc12 (stereo not given) + Cc1sc2c(c1C)C(c1ccc(Cl)cc1)=N[C@@H](CC(=O)OC(C)(C)C)c1nnc(C)n1-2 [NCGC00250412-19] | -115 |
